Screen size: about 400,000 compounds; about 5,500 (1.4%) were called active. The inconclusive results got no clear call from the source; some entries with a clear call stand among them for comparison. Calls come from the whole dose curve; as a rule, active = well fitted cell-killing curve with a large enough effect; inconclusive = small, poorly fitted or top-dose-only effect, or effect the other way; inactive = flat fitted curve, though single readings scatter. Potencies beside an inconclusive call are fits to weak or partial responses and may not hold up. More than one record can exist for a structure, and the calls need not agree.
Experiment: qHTS assay for MDR1-selective chemotherapeutics: Primary screen using the parental adenocarcinoma cell KB-3-1; note: nearly all actives have a fitted effect of over 60% in size
Conditions: KB-3-1 viability, CellTiter-Glo ATP luminescence, 72 h; activity change, negative = cytotoxic: at 46.1 µM (top of the series)
In short: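 Parental KB-3-1 viability, qHTS format: 72 h compound exposure, 37 °C; CellTiter-Glo; media-only wells and DMSO plates as controls; concentration-effect fits on corrected data.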
% is set by controls: 0 for no effect and ±100 for the full control effect; potency is the fitted concentration of half-maximal effect.

SMILES	activity change, negative = cytotoxic	Potency
CC1CCCN(C(=O)c2cc3c(=O)n(C)c4ccccc4c3s2)C1 (centres undefined)	inactive: 15.5%	–
O=C(Nc1cc(C(F)(F)F)cc(C(F)(F)F)c1)O[C@@H]1c2ccccc2[C@@H]2Cc3csc[n+]3[C@H]12	–	inconclusive: 16.4 µM [cytotoxic, single point]
FC(F)(F)c1cccc(-c2nc3nc(Cl)c(Cl)nc3[nH]2)c1	–	active: 2.59 µM
Cc1cc(N2CC(C(=O)NCc3cccs3)CC2=O)ccc1C(C)C (centres undefined)	–	inconclusive: 18.4 µM [cytotoxic, single point]
CSCCC(NC(=O)c1ccccc1Cl)C(=O)NCCOc1ccc(C)cc1 (centres undefined)	inactive: -3.07%	–
Cc1sc2c(c1C)c(=O)n(-c1ccc(Cl)cc1)c(=O)n2Cc1cc(=O)n2ccccc2n1	–	inactive
Cc1ccc2nc(N3CCC(C(=O)N4CCN(c5cccc(C)c5C)CC4)CC3)[nH]c2c1	–	inconclusive: 9.2 µM [cytotoxic, partial curve]
COc1cccc(CN2CC(C(=O)NCCCn3ccnc3C)CCC2=O)c1 (centres undefined)	inconclusive: -33.7% [cytotoxic]	–
CCCCOc1cc(NCc2ccccc2)c2ncn(C(C)C)c2c1	–	inconclusive: 29.1 µM [cytotoxic, partial curve, poor fit]
COc1ccc(NC(=O)c2nc[nH]c2C(=O)Nc2ccccc2C)cc1	–	active: 5.8 µM
Cc1cccc(NC(=O)C2CC3CCC2C3)c1C (centres undefined)	–	inconclusive: 3.26 µM [cytotoxic, partial curve, poor fit]
Cc1cccc(N2CCN(C(=S)Nc3ccc4nc(N5CCN(C)CC5)cc(C)c4c3)CC2C)c1 (centres undefined)	–	inconclusive: 16.4 µM [cytotoxic, single point]
CCc1c(C)sc(NC(=O)c2ccoc2C)c1C(N)=O	inactive: 14.2%	–
Cc1cccc(NC(=O)Nc2ccccc2)n1	–	inconclusive: 25.9 µM [cytotoxic, partial curve, poor fit]
O=c1cc(O)c2c(=O)n(C3CCCCC3)c3ccccc3c2o1	–	inconclusive: 23.1 µM [cytotoxic, single point]
O=C(c1ccccn1)N(Cc1ccco1)C1(C(=O)NC2CCCC2)CCCCC1	inactive: -0.362%	–
COc1cccc(/C=C/c2nc3c(cnn3-c3ccccc3)c(=O)[nH]2)c1	–	inconclusive: 5.8 µM [cytotoxic, partial curve]
Cc1ccc(NC(=O)/C(=C/c2cccc([N+](=O)[O-])c2)NC(=O)C2CCCCC2)cc1	inactive: 5.63%	–
CC(=N)C1=C(O)CC(c2ccccc2)CC1=O (centres undefined)	–	inconclusive: 2.91 µM [rising, partial curve, poor fit]
COc1ccc(Br)c(C(=O)Nc2cc3c(cc2N2CCOCC2)n(C)c(=O)n3C)c1	–	inconclusive: 29.1 µM [rising, single point]
CC(C)OCCCN1CC(=O)N2C(c3cccc([N+](=O)[O-])c3)c3[nH]c4ccccc4c3C[C@H]2C1=O (some centres undefined)	–	inconclusive: 5.17 µM [cytotoxic, full curve, poor fit]
COc1ccc(CC(=O)NCc2csc(-c3cccs3)n2)cc1OC	–	inconclusive: 29.1 µM [cytotoxic, partial curve, poor fit]
Cc1ccc(-c2nc(CS(=O)(=O)CC(=O)N3CCc4ccccc4C3)c(C)o2)cc1	–	active: 18.4 µM

SMILES	activity change, negative = cytotoxic	Potency
CC(=O)Nc1cccc(C(=O)/C=C/c2ccc(C)cc2)c1	–	inconclusive: 14.6 µM [cytotoxic, partial curve, poor fit]
Cc1ccc(C=Nc2ccccc2C(N)=O)s1	–	active: 23.1 µM
CCOC(=O)c1[nH]c2c(c1Cc1ccccc1C)C(=O)CC(c1cc(OC)ccc1OC)C2 (centres undefined)	inactive: 2.94%	–
Nc1nc(N2CCN(C/C=C/c3ccccc3)CC2)nc2ccccc12	–	inconclusive: 29.1 µM [cytotoxic, partial curve, poor fit]
CCCCOc1ccc(S(=O)(=O)NCc2csc(C)n2)cc1	–	active: 18.4 µM
COCCNC(=O)c1cc2c(=O)n3cccc(C)c3nc2n1C	–	active: 3.26 µM
Cc1ccc(S(=O)(=O)Nc2ccccc2/C=N/c2nc3ccccc3n2C)cc1	inconclusive: -14.3%	–
Cc1ccccc1Nc1nc(N)nc(CCl)n1	–	inconclusive: 29.1 µM [cytotoxic, single point]
Cc1ccc(NC(=O)CN(C)C(=O)c2ccc(NS(=O)(=O)c3cccc([N+](=O)[O-])c3)cc2)cc1	inactive: 4.42%	–
COC(C(=O)Nc1ccc(S(=O)(=O)Nc2ccc(C)c(C)c2)cc1)c1ccccc1 (centres undefined)	–	inconclusive: 20.6 µM [cytotoxic, single point]
Cc1ccccc1-c1nn2c(=O)cc(CN3CCN(C(=O)/C=C/c4ccccc4)CC3)nc2s1	inactive: -17.7%	–
O=[N+]([O-])c1ccc(N/N=C/c2cccnc2)cc1	inactive: -1.1%	–
CCOC(=O)c1ccc(NC(=O)C2CCN(S(=O)(=O)c3ccc4c(c3)CCCC(=O)N4)CC2)cc1	–	inconclusive: 29.1 µM [cytotoxic, single point]
CCCn1c(=S)[nH]c2sc3c(c2c1=O)CCCC3	–	inconclusive: 20.6 µM [cytotoxic, single point]
O=C(N/N=C/c1c(O)ccc2ccccc12)c1[nH]ncc1Br	–	inconclusive: 2.91 µM [cytotoxic, full curve]
COc1ccc(CCNCc2ccccc2N2CCCC2)cc1	–	inconclusive: 20.6 µM [cytotoxic, single point]
C=C1C(=O)[C@]23C[C@H]1CCC2[C@]1(C)CCC[C@@](C)(C(=O)O)C1C[C@@H]3O (some centres undefined)	–	active: 8.2 µM
C/C=C(/C)C(=O)OC1c2c(ccc3ccc(=O)oc23)OC(C)(C)C1OC(=O)/C(C)=C\C (centres undefined)	–	inconclusive: 18.4 µM [cytotoxic, single point]
CN(Cc1ccc(Cl)c(Cl)c1)C(c1cc2ccccc2o1)c1nnnn1C(C)(C)C (centres undefined)	–	inconclusive: 16.4 µM [cytotoxic, single point]
CCOc1ccc(S(=O)(=O)N(C)CCO)cc1-c1nc2c(C(C)(C)C)nn(C)c2c(=O)[nH]1	–	inconclusive: 18.4 µM [rising, single point]
Cc1sc2ncnc(NC3CCN(Cc4ccccc4)CC3)c2c1C	–	inconclusive: 29.1 µM [cytotoxic, single point]
CC1(C(=O)NCC(F)(F)F)CCN1C(=O)Cc1ccc(-c2ccccc2)cc1 (centres undefined)	–	inconclusive: 18.4 µM [cytotoxic, single point]
CCOc1ccc(C(=O)Nc2nnc(C3=COCCO3)o2)cc1	–	active: 0.0012 µM

2 compounds drawn at random from the list so far:
SMILES	activity change, negative = cytotoxic	Potency
CC1(C(=O)NCC(F)(F)F)CCN1C(=O)Cc1ccc(-c2ccccc2)cc1 (centres undefined)	–	inconclusive: 18.4 µM [cytotoxic, single point]
C=C1C(=O)[C@]23C[C@H]1CCC2[C@]1(C)CCC[C@@](C)(C(=O)O)C1C[C@@H]3O (some centres undefined)	–	active: 8.2 µM

Next part:

SMILES	activity change, negative = cytotoxic	Potency
Cc1nn(-c2ccccc2)c(N2CCCC2)c1/C=N/Nc1ccc(S(N)(=O)=O)cc1[N+](=O)[O-]	–	inconclusive: 29.1 µM [cytotoxic, single point]
CCOCCCn1c(SCC(=O)Nc2ccc(OC)cc2)nc2ccccc2c1=O	inactive: -14.7%	–
COC(=O)c1cc2ccsc2n1CC(=O)Nc1cc(Cl)ccc1OC	–	inconclusive: 20.6 µM [cytotoxic, single point]
CC(=O)c1ccc(Nc2nc(C(N)Cc3ccc(C(F)(F)F)cc3)cs2)cc1 (centres undefined)	–	inconclusive: 18.4 µM [cytotoxic, single point]
Oc1c(N=NC(=S)Nc2ccccc2F)c2ccccc2n1Cc1cccc(Cl)c1	–	active: 6.51 µM
Cc1cccc(NC2=NC(=S)N(c3ccc(C(=O)O)cc3)C23CCCCC3)c1	–	inconclusive: 29.1 µM [rising, single point]
CS(=O)(=O)c1ccc(NC(=O)C2CC(=O)N(c3ccc4c(c3)OCCO4)C2)cc1 (centres undefined)	–	inconclusive: 4.11 µM [rising, partial curve]
COc1ccc(S(=O)(=O)NCCN2CCOCC2)cc1Br	–	inconclusive: 8.2 µM [cytotoxic, single point]
Cc1cc(C(=O)C(=O)N(C)C)c(C)n1-c1ccc([N+](=O)[O-])cc1	inactive: -7.05%	–
CCCCOC(=O)/C=C/c1ccc(OC(=O)OC)c(OC(=O)OC)c1	–	inconclusive: 11.6 µM [cytotoxic, partial curve, poor fit]
CCOC(=O)c1c(C)nc2sc3c(=O)n(-c4ccc(C(C)=O)cc4)nnc3c2c1-c1ccc(Cl)cc1	–	inconclusive: 13 µM [cytotoxic, partial curve, poor fit]
Cc1cccc(N(CC(O)Cn2c3ccccc3c3ccccc32)S(=O)(=O)c2ccc(F)cc2)c1 (centres undefined)	–	inconclusive: 29.1 µM [cytotoxic, single point]
Cc1cccc(C)c1OCC(O)CN1CCN(c2ccccn2)CC1 (centres undefined)	inactive: 0.656%	–
O=C(NC1CC1)C1=C[C@@H](c2csc3ccccc23)C[C@@H](OCCCCO)O1	inactive: -1.33%	–
CCOC(=O)C1=C[C@@H](CC)N(S(=O)(=O)c2ccc(C)cc2)[C@H]1c1cccc(Cl)c1	–	inconclusive: 29.1 µM [cytotoxic, single point]
CC(=O)Nc1cccc(Nc2cc(C)nn2C)c1	inactive: -0.126%	–
O=C(NCc1cccs1)c1ccc2c(c1)N(Cc1ccccc1Cl)C(=O)c1ccccc1S2	inactive: 13.1%	–
CCOC(=O)N1CCN(S(=O)(=O)c2ccc(C(=O)Nc3sc4c(c3C(N)=O)CCN(CC)C4)cc2)CC1	–	inconclusive: 29.1 µM [cytotoxic, single point]
O=C(CN1CCCCC1)Nc1c2c(nc3ccccc13)N(c1ccccc1)CC2	inactive: -5.14%	–
Cc1ccccc1N1C(=O)CC1(C#N)c1ccc(OCc2ccccc2)cc1 (centres undefined)	–	inconclusive: 25.9 µM [cytotoxic, partial curve, poor fit]
OCCC1CN(Cc2cccn2-c2nccs2)CCN1Cc1ccccc1 (centres undefined)	inactive: 10.1%	–
Cc1cccc(NC(=O)CSc2nc(COc3ccccc3)nc3ccccc23)c1C	inactive: 3.58%	–
Cc1ccccc1CN1[C@H](C)[C@H](c2ccccc2)OCCS1(=O)=O	–	inconclusive: 25.9 µM [cytotoxic, single point]
